For at least one compound, name, drawing or mass did not settle the structure.
Legend:
[1] = after one week, 40° C., 75% RH
[2] = for hygroscopicity: potassium salt

| SMILES | change in the chemical purity [1] | relative humidity at which it rehydrates ([2]; 25° C.) | relative humidity to which the dihydrate is stable ([2]; 25° C.) | hygroscopicity [2] | phase change over the course of the GVS experiment (re-examined by XRPD) ([2]; sample recovered after GVS) |
| --- | --- | --- | --- | --- | --- |
| CNc1cc2[nH]c(=O)n(-c3ccc(NC(=O)[N-]S(=O)(=O)c4ccc(Cl)s4)cc3)c(=O)c2cc1F.[K+] [Form A] | No change | 20 % RH | 15 % relative humidity (RH) | less hygroscopic than the amorphous form of the sodium salt | – |
| CNc1cc2[nH]c(=O)n(-c3ccc(NC(=O)[N-]S(=O)(=O)c4ccc(Cl)s4)cc3)c(=O)c2cc1F.[K+] [Form B] | – | – | – | non-hygroscopic | no phase change |
